We go through 115 substances from the supplement of paper PMC5949888.

Most values lie at the floor of the assay. Slopes are relative: functional sequences can read slightly below zero. Bounds are passed on as bounds.

The subject of this series is Saccharomyces cerevisiae PS128 hsf1 delta, HSF1(1-493) fusion. Kind of series: growth estimate (transactivation domain function in HSF1 fusion, heat-shock survival) (a.u. (slope of normalised read count over time)); higher = stronger growth at 37°C, i.e. more transactivation activity. To be noted: library: random library.
On to SCIASEANRRWSYRRRE, for which the growth estimate is less than -0.25.

With SQNSTILGAAYFCQHVSHVS, the growth estimate was less than -0.25.

As to FPHILRLLGGES, the growth estimate is less than -0.25.

Regarding FLSMAGCPAAMCLTIGVSES, the growth estimate is less than -0.25.

In the case of VSSNTLRSSPGGHGTILTCG, the growth estimate is less than -0.25.

Take SVTCELCLIIRGPLRVFN: the growth estimate was -0.245.

With LRFS, the growth estimate was less than -0.25.

For the substance QVILQGTRDTTVG, the growth estimate was less than -0.25.

In the case of TQQRVVHYEG, the growth estimate was less than -0.25.

For the substance NGVPGRKVNCFRLRMSIPHV, the growth estimate is less than -0.25.

Consider PRPGPWLVWVRQPWVRLPLC, for which the growth estimate is -0.21.

For QRFAASAGDF, the growth estimate is less than -0.25.

SILANKAGLPDGAQGRPTAW: the growth estimate was less than -0.25.

Consider VTYMECMPPVSCDTPISIHV, for which the growth estimate was -0.246.

GHGSRGAQTPVALHLTRHLT: the growth estimate was less than -0.25.

KRCIQIYSA: the growth estimate is less than -0.25.

Regarding VQLLADGRN, the growth estimate is less than -0.25.

As to RSGVKRGKTTAHSIA, the growth estimate was less than -0.25.

On to SNGVH, for which the growth estimate is less than -0.25.

LCAGVLRGPSTCAP: the growth estimate is less than -0.25.

With GRVRFCRKQ, the growth estimate is less than -0.25.

For the substance VLSARWSVE, the growth estimate is less than -0.25.

As to KFGIRLDP, the growth estimate is less than -0.25.

In the case of PHVISSACGVTSPRFRPEGP, the growth estimate is less than -0.25.

As to FVIKAPESLGRQSEFRISRC, the growth estimate was less than -0.25.

With EPDTDGGEVFYAMTGARTRA, the growth estimate is less than -0.25.

For the substance KLRSPDLAMPRQHIWLGDRW, the growth estimate is less than -0.25.

For the substance LRRLW, the growth estimate was less than -0.25.

Take TPAPDCKFVCCGLYVHETGI: the growth estimate was less than -0.25.

Consider RDHTPLGL, for which the growth estimate was less than -0.25.

On to IGI, for which the growth estimate was less than -0.25.

Take PHFQPSYCCAYRSVNPCTDR: the growth estimate was less than -0.25.

Consider NMRYMLEIQFAGVLAVVREA, for which the growth estimate was less than -0.25.

In the case of RAADDESQTYSFMSAVCSGA, the growth estimate was less than -0.25.

Regarding TGSGGLLVR, the growth estimate was less than -0.25.

Turning to PDAEWAATIVLRSLCRRPIP, the growth estimate was less than -0.25.

Regarding FLPHGALRE, the growth estimate is less than -0.25.

On to PWARWTQGFQRQRSSGP, for which the growth estimate was less than -0.25.

Regarding NDCSDNGAWVEPVQLNLTRG, the growth estimate is -0.228.

With ASSIAVPARRLTSSLPLVSV, the growth estimate is less than -0.25.

As to SSDQLRW, the growth estimate was less than -0.25.

Turning to STATPCWEHNIIGGKFWAVI, the growth estimate was less than -0.25.

For the substance LVVPFCAGEVYTQYRQLLHT, the growth estimate is less than -0.25.

As to RRVSVRHQSTVLASNEPLRS, the growth estimate is less than -0.25.

GKSEQSVC: the growth estimate was less than -0.25.

Turning to KLRHVLALPGTSPEGSSCRP, the growth estimate is less than -0.25.

In the case of RDIRACSVRIDPAALCSPEP, the growth estimate is less than -0.25.

On to GGLGNRYRPRPSPGPFPPIR, for which the growth estimate was less than -0.25.

For WVSELESPSTQVRAKCP, the growth estimate was less than -0.25.

For the substance SCATRMERFTPERGSSNRPT, the growth estimate is less than -0.25.

With LIHQIRSEPRLECGYPVGLS, the growth estimate is less than -0.25.

Take EWAEDHSVGKYLLERMRPIR: the growth estimate is less than -0.25.

With HRYICGIQGIL, the growth estimate is less than -0.25.

Turning to SIVTYRAWNHLSCSLVASVL, the growth estimate is less than -0.25.

With CWY, the growth estimate was less than -0.25.

As for LVLQRR, the growth estimate is less than -0.25.

Regarding CPVDDSSPAGVLLEVAMPVQ, the growth estimate is less than -0.25.

For DLTPAARLAIASPEGSMNRV, the growth estimate was less than -0.25.

As to VLYLVRLELTRCPVSPHNRA, the growth estimate was less than -0.25.

As to HSTNQSDDQEKIVPCSARDW, the growth estimate is less than -0.253.

Turning to SEVPILKNRTAISPAGYPPT, the growth estimate is less than -0.25.

In the case of GVCGREDSRIRVI, the growth estimate was less than -0.25.

As for QLPYSRIY, the growth estimate is less than -0.25.

For the substance RSRSISFTSKSALNAPNFKN, the growth estimate was less than -0.25.

As for ACSVSRPHIRRPARPRGVTL, the growth estimate was less than -0.25.

As to LIISNVAVVDKGIELGERIG, the growth estimate is less than -0.25.

In the case of AFYRATFPPCRYAGVQLNME, the growth estimate is less than -0.25.

With AKRDRMGDESLVTLMLTCNV, the growth estimate is less than -0.25.

On to EGTSELGSVILGVR, for which the growth estimate was less than -0.25.

With DGKAKTP, the growth estimate is less than -0.25.

On to SWGGKWMLIVLRWSGNGGVR, for which the growth estimate is less than -0.25.

Take QIVSANVADTNALTR: the growth estimate was less than -0.25.

For the substance IDRIGYWKFPDNYVAVV, the growth estimate was less than -0.25.

For the substance PRIGSTSIVRRVCAMITGSA, the growth estimate was less than -0.25.

As to HVAEELRVIFGRR, the growth estimate was less than -0.25.

As to GLFNC, the growth estimate was less than -0.25.

Take MSETRKTVRDADVS: the growth estimate is less than -0.25.

For the substance QATTRDSWTYPF, the growth estimate is less than -0.25.

With TTVSVWEIPFAMVSKEEEAL, the growth estimate is less than -0.25.

Regarding RTRLDRKLSPGS, the growth estimate was less than -0.25.

Take ANVGYSWGEAGVTVG: the growth estimate was less than -0.25.

As to VLYLITVRAVAMAPA, the growth estimate is less than -0.25.

Regarding YFV, the growth estimate was less than -0.25.

For KGRPIFSSTLFSCAAH, the growth estimate is less than -0.25.

On to YDT, for which the growth estimate was less than -0.25.

With SYKDVVTRRIVRSTANNALF, the growth estimate was less than -0.25.

As for VTASYRPRNRLIEDEPTVGK, the growth estimate is less than -0.25.

Take PAH: the growth estimate was less than -0.25.

As for GKEDCY, the growth estimate is less than -0.25.

As to SAGTAHCTRPSRLSRDTSYD, the growth estimate was less than -0.25.

TAVLLYSVRGFIL: the growth estimate was less than -0.25.

Regarding TCL, the growth estimate was less than -0.25.

As for FHSGSMNFG, the growth estimate was less than -0.25.

Regarding TMHYDCCA, the growth estimate is less than -0.25.

AYVRDTSGEGTHGNILEQR: the growth estimate was less than -0.25.

Regarding LLGRYRHAKAERRAVWERI, the growth estimate is less than -0.25.

Turning to VGRAL, the growth estimate was less than -0.25.

Turning to TFTLVHLHKTFTTVLSVPGG, the growth estimate was less than -0.25.

In the case of VTSLKPSHG, the growth estimate was less than -0.25.

Consider SGRSLQRSCIFFS, for which the growth estimate was less than -0.25.

For PLSGDAKLRTGCD, the growth estimate was less than -0.25.

As for ANSR, the growth estimate is less than -0.25.

For the substance VAAVHSH, the growth estimate is less than -0.25.

Take TYVLFKPFIASYRIVRKEAS: the growth estimate was less than -0.25.

In the case of SVSP, the growth estimate is less than -0.25.

For TLVISNARKLDLLSTAFQDG, the growth estimate is less than -0.25.

In the case of RAGAS, the growth estimate was less than -0.25.

Regarding EFWIVRYAVVDYLGSECFAG, the growth estimate was less than -0.25.

Consider HGVGRIRT, for which the growth estimate was less than -0.25.

With WFLWGGGRRLGKG, the growth estimate was less than -0.25.

Consider AREALSLCADVRPLTGASDL, for which the growth estimate is less than -0.25.

Regarding RVRRIITRKKSLVYYLRRQS, the growth estimate was less than -0.25.

With GVGSARSFPGRGLSEFASQP, the growth estimate was less than -0.25.

Consider TESLDWSSSQTFYARTAPVL, for which the growth estimate was less than -0.25.

For ARGRSL, the growth estimate was less than -0.25.
